Earlier results in patent US20200352905A1, “6-(2,4-DICHLOROPHENYL)-5-[4-[(3S)-1-(3-FLUOROPROPYL)PYRROLIDIN-3-YL]OXYPHENYL]-8,9-DIHYDRO-7H-BENZO[7]ANNULENE-2-CARBOXYLIC ACID FOR USE IN METASTATIC OR ADVANCED BREAST CANCER PATIENTS” (SANOFI, priority 2019, published 2020).

Tested on: CYP3A
Settings: moderate CYP3A inhibitors; victim sildenafil; cited from earlier work

Compound: O=C(O)c1cn(C2CC2)c2cc(N3CCNCC3)c(F)cc2c1=O [ciprofloxacin]
- AUC Ratio: 2.12
